According to paper PMC8139508:
Results are given in words; binding and its absence hold for the method and conditions named. In cells and extracts the contact can be indirect. Some entries that bind do so weakly or less than the wild type.

Chains of the proteins cited; added tags and fusions are not shown.
UniProt P03107: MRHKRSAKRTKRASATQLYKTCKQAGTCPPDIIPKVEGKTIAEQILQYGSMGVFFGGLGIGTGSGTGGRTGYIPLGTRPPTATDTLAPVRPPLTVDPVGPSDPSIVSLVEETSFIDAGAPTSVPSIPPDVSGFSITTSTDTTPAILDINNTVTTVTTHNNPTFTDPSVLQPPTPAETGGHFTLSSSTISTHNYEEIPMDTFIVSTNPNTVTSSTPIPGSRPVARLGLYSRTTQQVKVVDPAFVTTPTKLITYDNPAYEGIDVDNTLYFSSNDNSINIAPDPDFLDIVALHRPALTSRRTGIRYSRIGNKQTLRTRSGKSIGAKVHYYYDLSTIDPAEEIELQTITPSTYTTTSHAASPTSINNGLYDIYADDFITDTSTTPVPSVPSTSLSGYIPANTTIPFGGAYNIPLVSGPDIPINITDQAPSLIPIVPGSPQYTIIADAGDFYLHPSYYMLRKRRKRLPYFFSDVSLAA
UniProt Q6VN20: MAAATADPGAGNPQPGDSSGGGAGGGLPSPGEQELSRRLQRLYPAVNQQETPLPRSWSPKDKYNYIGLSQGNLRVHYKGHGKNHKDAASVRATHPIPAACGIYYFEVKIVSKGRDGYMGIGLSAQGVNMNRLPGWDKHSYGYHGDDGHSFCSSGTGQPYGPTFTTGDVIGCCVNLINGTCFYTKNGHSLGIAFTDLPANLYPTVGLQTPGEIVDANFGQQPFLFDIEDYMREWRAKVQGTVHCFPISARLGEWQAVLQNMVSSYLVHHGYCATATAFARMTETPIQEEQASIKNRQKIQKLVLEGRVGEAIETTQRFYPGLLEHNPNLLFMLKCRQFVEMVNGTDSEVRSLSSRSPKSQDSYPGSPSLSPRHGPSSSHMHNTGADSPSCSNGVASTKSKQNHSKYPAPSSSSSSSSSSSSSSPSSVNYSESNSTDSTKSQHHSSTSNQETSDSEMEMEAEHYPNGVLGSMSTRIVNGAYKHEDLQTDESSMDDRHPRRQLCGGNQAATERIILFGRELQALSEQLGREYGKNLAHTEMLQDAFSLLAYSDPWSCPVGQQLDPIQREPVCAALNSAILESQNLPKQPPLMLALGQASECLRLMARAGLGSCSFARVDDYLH
UniProt P51808: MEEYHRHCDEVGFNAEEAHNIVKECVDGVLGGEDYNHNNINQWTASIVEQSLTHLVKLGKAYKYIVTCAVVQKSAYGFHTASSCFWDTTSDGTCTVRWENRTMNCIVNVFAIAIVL

Experiments:
[1] = biological target: HPV16 minor capsid protein L2, wild type, 3xHA-tagged (L2-3xHA) (human papillomavirus type 16) (UniProt P03107); test: co-IP; HEK293 cells transfected 24 h; unsynchronized or synchronized 16 h with aphidicolin (3 uM, interphase) or nocodazole (330 nM, prometaphase); IP lysis buffer 150 mM NaCl, 1% NP-40, 50 mM Tris-HCl, 50 mM NaF, pH 7.4; anti-HA (HA.11) or anti-FLAG (M2) with protein G agarose; Western blot
[2] = biological target: HA-tagged Ran-binding protein 10 (HA-RanBP10) (UniProt Q6VN20); test: as above

Substance: FLAG-tagged dynein light chain DYNLT3 (FLAG-DYNLT3) (from UniProt P51808 1-116)
- binding [1]: binds
- binding [2]: binds

Substance: HPV16 L2 fused to GFP (L2-GFP) (from UniProt P03107 1-473)
- binding [2]: binds
